Laboratory results: PubChem BioAssay AID1259425 (University of Nebraska Medical Center, 2018)

Screen: 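Find knockdowns that reproduce the gene expression pattern seen when KSR1 is lost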 (primary screen)
Cell system: HCT116 human colon cancer cells
Knock-down reagent: siRNA pool against human genes, 50 nM siRNA
Detection: 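mRNA of six signature genes measured together by branched-DNA assay after 50 nM siRNA pool, blank removed, divided by geometric mean of two housekeeping genes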
Reading the numbers: BNIP3L mRNA: higher = more BNIP3L transcript after knockdown; NDRG1 mRNA: higher = more NDRG1 transcript after knockdown; BNIP3 mRNA: higher = more BNIP3 transcript after knockdown; ALDOC mRNA: higher = more ALDOC transcript after knockdown; ACSL5 mRNA: higher = more ACSL5 transcript after knockdown
Shown is a random part of about 14,000 reagents. No sequences are given here. Not stated in the record: the time to read-out.

gene knocked down | BNIP3L mRNA, set 1 | NDRG1 mRNA, set 1 | BNIP3 mRNA, set 1 | ALDOC mRNA, set 1 | ACSL5 mRNA, set 1
DMBT1 (GeneID 1755) | 0.0636 | 0.21 | 0.274 | 0.0374 | 0.246
SLC6A11 (GeneID 6538) | 0.0638 | 0.234 | 0.241 | 0.0591 | 0.261
PHOSPHO1 (GeneID 162466) | 0.0526 | 0.137 | 0.283 | 0.0285 | 0.0943
EDN2 (GeneID 1907) | 0.143 | 0.588 | 0.508 | 0.022 | 0.416
NSL1 (GeneID 25936) | 0.184 | 0.193 | 0.52 | 0.0101 | 0.185
GCC2 (GeneID 9648) | 0.151 | 0.192 | 0.385 | 0.0355 | 0.19
PARP6 (GeneID 56965) | 0.0734 | 0.95 | 0.471 | 0.0563 | 0.239
TMEM39B (GeneID 55116) | 0.121 | 0.222 | 0.332 | 0.0129 | 0.107
FAM169A (GeneID 26049) | 0.168 | 0.237 | 0.6 | 0.0278 | 0.185
STAMBPL1 (GeneID 57559) | 0.049 | 0.267 | 0.25 | 0.0197 | 0.0904
HEYL (GeneID 26508) | 0.0805 | 0.135 | 0.321 | 0.0029 | 0.237
TAX1BP3 (GeneID 30851) | 0.19 | 0.173 | 0.325 | 0.00666 | 0.121
ALPL (GeneID 249) | 0.0447 | 0.0786 | 0.34 | 0.0485 | 0.278
TBCE (GeneID 6905) | 0.112 | 0.15 | 0.192 | 0.0268 | 0.11
NACA4P (GeneID 83955) | 0.126 | 0.177 | 0.349 | 0.0459 | 0.145
PCDH11Y (GeneID 83259) | 0.0758 | 0.368 | 0.317 | 0.0152 | 0.15
PTGES2 (GeneID 80142) | 0.133 | 0.229 | 0.278 | 0.0199 | 0.248
ARHGAP21 (GeneID 57584) | 0.057 | 0.0783 | 0.303 | 0.0274 | 0.142
MS4A2 (GeneID 2206) | 0.19 | 0.236 | 0.456 | 0.0557 | 0.371
NXF3 (GeneID 56000) | 0.113 | 0.54 | 0.264 | 0.0228 | 0.273
CASP4 (GeneID 837) | 0.124 | 0.417 | 0.406 | 0.0334 | 0.202
ELOVL5 (GeneID 60481) | 0.0857 | 0.0482 | 0.207 | 0.0226 | 0.335
EGR3 (GeneID 1960) | 0.0855 | 0.0438 | 0.366 | 0.0105 | 0.19
HOXB7 (GeneID 3217) | 0.0927 | 0.435 | 0.282 | 0.0166 | 0.288
RBX1 (GeneID 9978) | 0.257 | 0.484 | 0.711 | 0.0482 | 0.0942
UBR1 (GeneID 197131) | 0.083 | 0.108 | 0.288 | 0.0296 | 0.162
EVA1A (GeneID 84141) | 0.386 | 0.285 | 0.261 | 0.153 | 0.61
CYP2J2 (GeneID 1573) | 0.103 | 0.121 | 0.218 | 0.0308 | 0.221
RUBCN (GeneID 9711) | 0.264 | 0.327 | 0.265 | 0.099 | 0.235
GNL1 (GeneID 2794) | 0.0462 | 0.14 | 0.358 | 0.0173 | 0.083
MFHAS1 (GeneID 9258) | 0.164 | 0.113 | 0.313 | 0.0145 | 0.222
COMMD8 (GeneID 54951) | 0.1 | 0.599 | 0.362 | 0.0717 | 0.155
IL23R (GeneID 149233) | 0.0719 | 0.479 | 0.247 | 0.0242 | 0.0856
RWDD2B (GeneID 10069) | 0.16 | 0.196 | 0.311 | 0.0179 | 0.22
CHST12 (GeneID 55501) | 0.0652 | 0.121 | 0.236 | -0.000908 | 0.124
CACNG8 (GeneID 59283) | 0.196 | 0.161 | 0.445 | 0.026 | 0.213
FPGS (GeneID 2356) | 0.0852 | 0.239 | 0.24 | 0.0219 | 0.104
MBTPS2 (GeneID 51360) | 0.0408 | 0.24 | 0.209 | 0.0181 | 0.184
CD40 (GeneID 958) | 0.103 | 0.0848 | 0.111 | 0.00607 | 0.101
EYA4 (GeneID 2070) | 0.044 | 0.474 | 0.255 | 0.0101 | 0.213
PTGER4 (GeneID 5734) | 0.0897 | 0.219 | 0.393 | 0.0534 | 0.148
IL17D (GeneID 53342) | 0.128 | 0.0663 | 0.298 | 0.0241 | 0.0943
OR5P3 (GeneID 120066) | 0.201 | 0.245 | 0.357 | 0.0372 | 0.204
LILRA4 (GeneID 23547) | 0.0512 | 0.131 | 0.226 | 0.0255 | 0.0948
SERPINB6 (GeneID 5269) | 0.0886 | 0.327 | 0.29 | 0.0193 | 0.174
KCNA3 (GeneID 3738) | 0.16 | 0.189 | 0.396 | 0.0214 | 0.108
RRP12 (GeneID 23223) | 0.0983 | 0.268 | 0.391 | 0.0378 | 0.205
ISG20 (GeneID 3669) | 0.13 | 0.181 | 0.199 | 0.0245 | 0.134
MYT1 (GeneID 4661) | 0.121 | 0.19 | 0.314 | 0.00662 | 0.186
RBM19 (GeneID 9904) | 0.0405 | 0.0399 | 0.19 | 0.0159 | 0.131

Part of the list above in another layout:
{"gene knocked down": "HEYL (GeneID 26508)", "BNIP3L mRNA, set 1": 0.0805, "NDRG1 mRNA, set 1": 0.135, "BNIP3 mRNA, set 1": 0.321, "ALDOC mRNA, set 1": 0.0029, "ACSL5 mRNA, set 1": 0.237}
{"gene knocked down": "TAX1BP3 (GeneID 30851)", "BNIP3L mRNA, set 1": 0.19, "NDRG1 mRNA, set 1": 0.173, "BNIP3 mRNA, set 1": 0.325, "ALDOC mRNA, set 1": 0.00666, "ACSL5 mRNA, set 1": 0.121}
{"gene knocked down": "ALPL (GeneID 249)", "BNIP3L mRNA, set 1": 0.0447, "NDRG1 mRNA, set 1": 0.0786, "BNIP3 mRNA, set 1": 0.34, "ALDOC mRNA, set 1": 0.0485, "ACSL5 mRNA, set 1": 0.278}
{"gene knocked down": "TBCE (GeneID 6905)", "BNIP3L mRNA, set 1": 0.112, "NDRG1 mRNA, set 1": 0.15, "BNIP3 mRNA, set 1": 0.192, "ALDOC mRNA, set 1": 0.0268, "ACSL5 mRNA, set 1": 0.11}
{"gene knocked down": "NACA4P (GeneID 83955)", "BNIP3L mRNA, set 1": 0.126, "NDRG1 mRNA, set 1": 0.177, "BNIP3 mRNA, set 1": 0.349, "ALDOC mRNA, set 1": 0.0459, "ACSL5 mRNA, set 1": 0.145}
{"gene knocked down": "PCDH11Y (GeneID 83259)", "BNIP3L mRNA, set 1": 0.0758, "NDRG1 mRNA, set 1": 0.368, "BNIP3 mRNA, set 1": 0.317, "ALDOC mRNA, set 1": 0.0152, "ACSL5 mRNA, set 1": 0.15}
